Measured data: PubChem BioAssay AID504774 (Drosophila RNAi Screening Center, 2011)
In all, the deposit lists about 23,000 reagents; this is an unselected part of those with a known target gene and a result. 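Values are quantile-normalised luminescence on an arbitrary scale; higher means more cells surviving MMS.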 Names joined by + are all predicted targets of the reagent. Not all columns of the deposit are shown. Reagent sequences are not shown.

- Test: 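Knock-downs that shift viability of MMS-exposed cells relative to untreated ones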 (primary screen)
- Cell system: Drosophila Kc167 cells
- Reagent: long dsRNA against Drosophila genes, about 0.25 µg dsRNA per well
- Timing: about 6 days: 3 days knock-down, then 3 days with or without MMS
- Treatment: methyl methanesulphonate 0.004% (w/v) for 3 days after knock-down
- Detection: 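ATP-dependent luminescence as a measure of live cells in MMS-exposed wells, quantile normalised within each plate, with replicate values also given as a mean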
- Scale: mean viability with MMS: higher = more surviving cells after MMS

With Shawn + Tyler [DRSC19564], what does the deposit list?
mean viability with MMS: 3.59e6

How did the screen score Shawn + Tyler [DRSC19565]?
mean viability with MMS: 3.41e6

With Gbp2 (Growth-blocking peptide 2) [DRSC06069], what does the deposit list?
mean viability with MMS: 3.58e6

What is on record for CG17991 [DRSC15294]?
mean viability with MMS: 3.49e6

With geminin [DRSC04984], how do the results read?
mean viability with MMS: 2.82e6

What is on record for CG32511 (retired record) [DRSC20697]?
mean viability with MMS: 1.94e6

What is on record for ytr (yantar) [DRSC04306]?
mean viability with MMS: 3.54e6

With ytr (yantar) [DRSC22073], how do the results read?
mean viability with MMS: 3.57e6

What is on record for SIDL (Shal Interactor of Di-Leucine Motif) [DRSC16077]?
mean viability with MMS: 3.68e6

How did the screen score CG4477 [DRSC10425]?
mean viability with MMS: 3.66e6

Which result is listed for GAPcenA (GTPase activating protein and centrosome-associated) [DRSC10771]?
mean viability with MMS: 3.76e6

For nonA-l (nonA-like) [DRSC17017], what does the deposit list?
mean viability with MMS: 3.55e6

For CG8839 [DRSC07285], what was measured?
mean viability with MMS: 3.52e6

What is on record for hyx (hyrax) [DRSC14462]?
mean viability with MMS: 3.33e6

What did the screen give for CG33796 [DRSC09417]?
mean viability with MMS: 3.49e6

What did the screen give for CG14591 [DRSC04868]?
mean viability with MMS: 3.48e6

What is on record for Elo68alpha (Elongase 68alpha) [DRSC22725]?
mean viability with MMS: 3.67e6

For CD98hc (CD98 heavy chain) [DRSC15453], what was measured?
mean viability with MMS: 3.42e6

Which result is listed for CG10845 [DRSC14272]?
mean viability with MMS: 3.70e6

With CG15708 [DRSC06579], what does the deposit list?
mean viability with MMS: 3.49e6

What is on record for RpL29 (Ribosomal protein L29) [DRSC04650]?
mean viability with MMS: 3.58e6

With Ent1 (Equilibrative nucleoside transporter 1) [DRSC00330], what does the deposit list?
mean viability with MMS: 3.59e6

For CG15547 [DRSC15085], how do the results read?
mean viability with MMS: 3.43e6

Which result is listed for CG2641 [DRSC15441]?
mean viability with MMS: 3.56e6
